# Reference: PubChem BioAssay AID686937 (Drosophila RNAi Screening Center, 2013)
# Screen: 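Genes whose loss weakens secretory pathway function in fly cells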 (primary screen)
# System: Drosophila S2 cells expressing secreted horseradish peroxidase
# Reagent: long dsRNA against Drosophila genes
# Timing: about 5.5 days (5 days dsRNA, then 12 h reporter induction)
# Conditions: reporter expression induced after 5 days of dsRNA, read 12 h later; inducer not stated
# Measured: 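Chemiluminescent measurement of peroxidase in the medium 12 h after reporter induction, following 5 days of dsRNA, given as a z-score per plate; higher means more secretion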
# Scale: z-score: higher = more reporter secreted into medium
# The screen tested about 23,000 reagents; this is an unselected part of those with a known target gene and a result. 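Reduced-secretion tags in replicate 1 do not always agree with the z-scores; no criterion for assigning the tags was given.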 A plus sign joins genes that one reagent is predicted to hit. No sequences are given here. The record does not give: the amount of reagent.
gene knocked down,DRSC id,"z-score, replicate 1","z-score, replicate 2","z-score, replicate 3","z-score, replicate 4","phenotype, replicate 1"
scramb2,DRSC08543,0.23,0.3,,,
CG32944,DRSC12138,0.39,0.19,,,
CG32944,DRSC12341,0.48,0.04,,,
TpnC73F,DRSC11307,0.3,-0.38,,,
CG4953,DRSC02792,0.48,0.35,,,
Fatp3,DRSC04366,0.34,0.1,,,
MESR3,DRSC02463,0.27,0.19,,,
rau,DRSC03125,0.07,0.28,,,
santa-maria,DRSC00994,-0.44,-0.08,,,
santa-maria,DRSC02180,0.04,0.35,,,
CG3592,DRSC18315,0.32,0.33,,,
alphaTry,DRSC07577,0.32,0.14,,,
Pif2,DRSC12525,0.2,0.41,,,
meigo,DRSC15877,-0.87,-0.4,,,
TrpRS,DRSC14097,0.02,-0.39,,,
Pp1-Y2,DRSC21608,-0.31,-0.38,,,
prel,DRSC07271,0.33,0.32,,,
brv2,DRSC10226,-3.96,-1.81,,,reduced secretion
HPS1,DRSC06195,0.15,0.35,,,
CG1902,DRSC06798,0.11,0.32,,,
Rlip,DRSC16828,0.21,0.2,,,
capu,DRSC00208,0.19,0.23,,,
capu,DRSC00209,-0.68,-0.07,,,
capu,DRSC00434,0.58,0.21,,,
capu,DRSC00807,0.24,0.46,,,
Rh4 + sina,DRSC11396,0.39,0.48,,,
Diedel2,DRSC13952,0.22,-0.23,,,
CG11590,DRSC19411,0.39,0.28,,,
CG32651,DRSC18941,0.2,0.32,,,
CG14187,DRSC10186,0.31,0.49,,,
CG10681,DRSC09777,0.21,0.13,,,
CG10681,DRSC21484,0.38,-0.49,,,
CG7222,DRSC07019,0.13,0.3,,,
CG7706,DRSC16295,0.29,0.36,,,
CG30467,DRSC07097,0.26,-0.05,,,
CG1092,DRSC12151,0.12,0.14,,,
Naa20A,DRSC19579,0.22,0.5,,,
Lamtor4,DRSC08436,-0.46,-0.3,,,
CG42523,DRSC00251,0.26,0.41,,,
Nmt,DRSC11236,-0.85,-0.79,,,
Flad2,DRSC02531,0.12,0.15,,,
CG2694,DRSC18470,0.22,0.4,,,
RpL38,DRSC07818,-4.17,-2.88,,,reduced secretion
CG6527,DRSC10659,0.46,0.5,,,
CG8043,DRSC16368,0.31,0.42,,,
lncRNA:CR42862 + CG33229,DRSC08497,0.26,0.26,,,
sick,DRSC02090,-0.24,-0.54,,,
sick,DRSC02300,0.1,0.13,,,
sick,DRSC02301,0.49,0.38,,,
sick,DRSC02302,0.45,0.31,,,
sick,DRSC02303,0.66,0.32,,,
sick,DRSC02306,0.69,0.63,,,
CG14218,DRSC19575,0.57,0.15,0.19,-0.22,
inaE,DRSC19376,0.57,0.63,,,
inaE,DRSC19377,0.2,0.55,,,
inaE,DRSC19379,0.53,0.53,-0.39,-0.61,
inaE,DRSC19726,0.45,0.18,,,
pea,DRSC07120,-4.53,-3.62,,,reduced secretion
SK,DRSC17387,0.32,0.01,,,
SK,DRSC17751,0.13,-0.48,,,
SK,DRSC17887,0.26,-0.69,,,
SK,DRSC17888,0.49,0.68,,,
SK,DRSC18353,0.32,-0.08,,,
SK,DRSC21840,1.43,0.75,,,
CG6209,DRSC06968,0.26,0.26,,,
M1BP,DRSC16566,-2.36,-2.69,,,reduced secretion
CG5466,DRSC15808,-4.04,-3.35,,,reduced secretion
CCT7,DRSC16410,-0.16,-1.39,,,
CG14694,DRSC14917,0.12,-0.83,,,
CG6938,DRSC10752,0.57,0.12,,,
CG30075,DRSC05484,-0.13,0.24,,,
CG18081,DRSC10294,0.07,0.22,,,
RpL6,DRSC14323,-2.86,-1.85,,,reduced secretion
RpL6,DRSC22384,-1.22,-1.81,,,reduced secretion
CG30022,DRSC22405,-0.21,0.01,,,
CG14960,DRSC08419,0.33,0.41,,,
CG30076,DRSC05494,-1.15,-0.17,,,
CG31642,DRSC02919,0.38,0.29,,,
FASN1,DRSC00268,-6.48,-6.17,,,reduced secretion
DCX-EMAP,DRSC10012,0.28,0.11,,,
DCX-EMAP,DRSC10013,0.65,0.37,,,
lncRNA:CR43498,DRSC17621,0.16,0.18,,,
mthl7,DRSC10852,0.37,-0.04,,,
Grip71,DRSC02042,1.64,0.45,,,
CG9331,DRSC03206,0.59,0.6,,,
pncr003:2L (retired record),DRSC22149,-0.73,1.07,,,
CG15472,DRSC18055,0.41,0.48,,,
RabX1,DRSC04678,0.01,0.06,,,
Mcm3,DRSC18679,0.19,0.07,,,
FASN3,DRSC20882,0.47,0.17,,,
CG15535,DRSC15071,0.4,0.24,,,
miple2,DRSC08723,0.3,0.34,,,
Cpr64Aa,DRSC08460,-1.58,-1.24,,,reduced secretion
cav,DRSC15995,0.3,0.23,,,
Rcd7,DRSC10100,0.29,0.24,,,
CR32821 + CR43381 + CR43377 + 1 more,DRSC22544,-0.45,-0.46,,,
CG34423 + Mthfs,DRSC04088,0.36,-0.18,,,
CG7322,DRSC20036,0.06,0.5,,,
CG5104,DRSC11765,0.27,0.37,,,
CG14325,DRSC14804,0.39,0.14,,,
CG8565,DRSC20112,0.51,0.26,,,
CG31637,DRSC02270,0.22,0.32,,,
CG31637,DRSC03263,0.39,0.54,,,
fzr2,DRSC04280,0.34,0.44,,,

In a second layout: 15 of the entries above.
pncr003:2L (retired record) [DRSC22149]
- z-score, replicate 1: -0.73
- z-score, replicate 2: 1.07

CG15472 [DRSC18055]
- z-score, replicate 1: 0.41
- z-score, replicate 2: 0.48

RabX1 [DRSC04678]
- z-score, replicate 1: 0.01
- z-score, replicate 2: 0.06

Mcm3 [DRSC18679]
- z-score, replicate 1: 0.19
- z-score, replicate 2: 0.07

FASN3 [DRSC20882]
- z-score, replicate 1: 0.47
- z-score, replicate 2: 0.17

CG15535 [DRSC15071]
- z-score, replicate 1: 0.4
- z-score, replicate 2: 0.24

miple2 [DRSC08723]
- z-score, replicate 1: 0.3
- z-score, replicate 2: 0.34

Cpr64Aa [DRSC08460]
- z-score, replicate 1: -1.58
- z-score, replicate 2: -1.24
- phenotype, replicate 1: reduced secretion

cav [DRSC15995]
- z-score, replicate 1: 0.3
- z-score, replicate 2: 0.23

Rcd7 [DRSC10100]
- z-score, replicate 1: 0.29
- z-score, replicate 2: 0.24

CR32821 + CR43381 + CR43377 + 1 more [DRSC22544]
- z-score, replicate 1: -0.45
- z-score, replicate 2: -0.46

CG34423 + Mthfs [DRSC04088]
- z-score, replicate 1: 0.36
- z-score, replicate 2: -0.18

CG7322 [DRSC20036]
- z-score, replicate 1: 0.06
- z-score, replicate 2: 0.5

CG5104 [DRSC11765]
- z-score, replicate 1: 0.27
- z-score, replicate 2: 0.37

CG14325 [DRSC14804]
- z-score, replicate 1: 0.39
- z-score, replicate 2: 0.14
